Test results published in the supplement of paper PMC12067093, “Discovery and optimisation of a covalent ligand for TRIM25 and its application to targeted protein ubiquitination” (Chemical Science, 2025).
Some of the results follow.

By UniProt entry, the sequences of proteins in these tests, tags left out. Where a name states a change or a piece, a line headed by the entry shows the natural chain unless it says otherwise.
UniProt O95239: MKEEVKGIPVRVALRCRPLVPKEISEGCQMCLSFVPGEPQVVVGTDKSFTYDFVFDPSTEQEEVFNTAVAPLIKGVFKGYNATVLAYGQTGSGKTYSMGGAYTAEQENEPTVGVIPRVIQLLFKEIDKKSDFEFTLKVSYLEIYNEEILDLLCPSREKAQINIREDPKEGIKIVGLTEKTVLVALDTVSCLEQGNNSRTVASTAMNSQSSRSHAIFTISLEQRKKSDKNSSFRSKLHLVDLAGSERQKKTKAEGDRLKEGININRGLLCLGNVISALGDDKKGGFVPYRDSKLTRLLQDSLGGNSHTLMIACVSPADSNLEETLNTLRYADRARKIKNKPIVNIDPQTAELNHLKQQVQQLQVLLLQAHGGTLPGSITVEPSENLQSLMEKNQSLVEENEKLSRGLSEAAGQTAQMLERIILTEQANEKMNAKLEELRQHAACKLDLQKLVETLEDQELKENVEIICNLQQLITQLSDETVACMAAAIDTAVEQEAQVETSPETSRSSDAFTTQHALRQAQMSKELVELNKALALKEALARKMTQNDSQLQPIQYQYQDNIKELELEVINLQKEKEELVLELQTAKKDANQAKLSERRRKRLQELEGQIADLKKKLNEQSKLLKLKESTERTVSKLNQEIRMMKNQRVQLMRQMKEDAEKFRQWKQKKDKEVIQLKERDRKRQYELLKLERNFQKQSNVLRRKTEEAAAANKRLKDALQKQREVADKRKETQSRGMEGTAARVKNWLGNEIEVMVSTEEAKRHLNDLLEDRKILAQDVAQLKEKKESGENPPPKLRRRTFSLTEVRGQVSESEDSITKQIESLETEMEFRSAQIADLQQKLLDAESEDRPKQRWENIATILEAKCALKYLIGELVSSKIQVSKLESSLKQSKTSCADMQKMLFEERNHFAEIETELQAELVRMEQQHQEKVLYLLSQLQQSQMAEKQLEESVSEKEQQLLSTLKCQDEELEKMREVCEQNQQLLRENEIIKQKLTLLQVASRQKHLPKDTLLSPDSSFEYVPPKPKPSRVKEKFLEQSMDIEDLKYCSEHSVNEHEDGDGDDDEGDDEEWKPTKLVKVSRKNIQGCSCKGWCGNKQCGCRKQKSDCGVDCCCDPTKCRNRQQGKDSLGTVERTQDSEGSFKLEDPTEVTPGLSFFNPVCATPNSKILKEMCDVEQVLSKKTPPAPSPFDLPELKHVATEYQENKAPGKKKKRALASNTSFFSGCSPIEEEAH
UniProt Q9P2J5: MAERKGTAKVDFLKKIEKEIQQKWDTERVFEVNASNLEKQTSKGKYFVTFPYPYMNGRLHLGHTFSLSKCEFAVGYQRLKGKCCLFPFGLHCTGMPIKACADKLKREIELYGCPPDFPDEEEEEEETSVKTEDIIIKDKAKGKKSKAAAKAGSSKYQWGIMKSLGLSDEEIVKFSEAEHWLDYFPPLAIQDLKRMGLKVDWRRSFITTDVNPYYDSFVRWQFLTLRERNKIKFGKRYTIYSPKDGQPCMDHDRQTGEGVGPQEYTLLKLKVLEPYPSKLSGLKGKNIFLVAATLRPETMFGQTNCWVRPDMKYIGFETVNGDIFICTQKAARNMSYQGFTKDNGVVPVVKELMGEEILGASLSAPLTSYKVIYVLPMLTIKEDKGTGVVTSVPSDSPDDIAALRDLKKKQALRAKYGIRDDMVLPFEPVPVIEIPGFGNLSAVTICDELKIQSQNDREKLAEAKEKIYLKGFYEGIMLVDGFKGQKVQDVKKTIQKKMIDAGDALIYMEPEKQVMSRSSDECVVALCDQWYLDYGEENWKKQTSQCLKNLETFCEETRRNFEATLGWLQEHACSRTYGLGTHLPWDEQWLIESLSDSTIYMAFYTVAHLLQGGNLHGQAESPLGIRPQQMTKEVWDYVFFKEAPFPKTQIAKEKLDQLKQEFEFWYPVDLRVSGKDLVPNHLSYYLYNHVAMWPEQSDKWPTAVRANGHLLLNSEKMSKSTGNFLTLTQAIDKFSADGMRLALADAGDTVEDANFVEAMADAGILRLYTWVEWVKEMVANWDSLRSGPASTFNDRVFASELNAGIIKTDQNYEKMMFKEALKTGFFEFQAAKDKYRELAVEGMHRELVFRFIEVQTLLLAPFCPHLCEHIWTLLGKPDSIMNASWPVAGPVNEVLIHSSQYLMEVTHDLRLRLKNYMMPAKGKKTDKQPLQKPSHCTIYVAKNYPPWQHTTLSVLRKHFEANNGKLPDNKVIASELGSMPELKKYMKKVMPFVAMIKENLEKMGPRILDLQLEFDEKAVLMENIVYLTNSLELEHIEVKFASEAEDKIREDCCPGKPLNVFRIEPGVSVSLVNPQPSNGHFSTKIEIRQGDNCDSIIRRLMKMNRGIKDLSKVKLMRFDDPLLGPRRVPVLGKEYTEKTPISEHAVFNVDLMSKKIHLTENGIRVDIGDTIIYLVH
UniProt Q9Y4W2: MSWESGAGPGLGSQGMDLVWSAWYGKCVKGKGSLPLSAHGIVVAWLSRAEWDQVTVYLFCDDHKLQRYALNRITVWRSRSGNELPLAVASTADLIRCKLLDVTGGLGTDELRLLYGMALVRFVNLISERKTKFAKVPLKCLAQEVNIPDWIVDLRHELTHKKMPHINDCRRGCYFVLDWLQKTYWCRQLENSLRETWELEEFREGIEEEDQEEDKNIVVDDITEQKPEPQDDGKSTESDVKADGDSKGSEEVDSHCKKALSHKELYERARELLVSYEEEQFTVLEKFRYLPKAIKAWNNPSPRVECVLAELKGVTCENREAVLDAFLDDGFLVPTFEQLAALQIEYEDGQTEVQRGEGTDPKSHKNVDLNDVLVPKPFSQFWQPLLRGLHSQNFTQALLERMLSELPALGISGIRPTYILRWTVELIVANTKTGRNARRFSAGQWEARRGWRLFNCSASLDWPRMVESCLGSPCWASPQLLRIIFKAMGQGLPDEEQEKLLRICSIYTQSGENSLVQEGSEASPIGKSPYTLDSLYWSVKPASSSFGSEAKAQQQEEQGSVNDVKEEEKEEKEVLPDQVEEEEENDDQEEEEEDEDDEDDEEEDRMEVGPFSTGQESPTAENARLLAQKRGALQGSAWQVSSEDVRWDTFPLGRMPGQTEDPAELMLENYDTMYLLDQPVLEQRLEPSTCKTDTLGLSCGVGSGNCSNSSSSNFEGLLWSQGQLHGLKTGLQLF
UniProt P50748: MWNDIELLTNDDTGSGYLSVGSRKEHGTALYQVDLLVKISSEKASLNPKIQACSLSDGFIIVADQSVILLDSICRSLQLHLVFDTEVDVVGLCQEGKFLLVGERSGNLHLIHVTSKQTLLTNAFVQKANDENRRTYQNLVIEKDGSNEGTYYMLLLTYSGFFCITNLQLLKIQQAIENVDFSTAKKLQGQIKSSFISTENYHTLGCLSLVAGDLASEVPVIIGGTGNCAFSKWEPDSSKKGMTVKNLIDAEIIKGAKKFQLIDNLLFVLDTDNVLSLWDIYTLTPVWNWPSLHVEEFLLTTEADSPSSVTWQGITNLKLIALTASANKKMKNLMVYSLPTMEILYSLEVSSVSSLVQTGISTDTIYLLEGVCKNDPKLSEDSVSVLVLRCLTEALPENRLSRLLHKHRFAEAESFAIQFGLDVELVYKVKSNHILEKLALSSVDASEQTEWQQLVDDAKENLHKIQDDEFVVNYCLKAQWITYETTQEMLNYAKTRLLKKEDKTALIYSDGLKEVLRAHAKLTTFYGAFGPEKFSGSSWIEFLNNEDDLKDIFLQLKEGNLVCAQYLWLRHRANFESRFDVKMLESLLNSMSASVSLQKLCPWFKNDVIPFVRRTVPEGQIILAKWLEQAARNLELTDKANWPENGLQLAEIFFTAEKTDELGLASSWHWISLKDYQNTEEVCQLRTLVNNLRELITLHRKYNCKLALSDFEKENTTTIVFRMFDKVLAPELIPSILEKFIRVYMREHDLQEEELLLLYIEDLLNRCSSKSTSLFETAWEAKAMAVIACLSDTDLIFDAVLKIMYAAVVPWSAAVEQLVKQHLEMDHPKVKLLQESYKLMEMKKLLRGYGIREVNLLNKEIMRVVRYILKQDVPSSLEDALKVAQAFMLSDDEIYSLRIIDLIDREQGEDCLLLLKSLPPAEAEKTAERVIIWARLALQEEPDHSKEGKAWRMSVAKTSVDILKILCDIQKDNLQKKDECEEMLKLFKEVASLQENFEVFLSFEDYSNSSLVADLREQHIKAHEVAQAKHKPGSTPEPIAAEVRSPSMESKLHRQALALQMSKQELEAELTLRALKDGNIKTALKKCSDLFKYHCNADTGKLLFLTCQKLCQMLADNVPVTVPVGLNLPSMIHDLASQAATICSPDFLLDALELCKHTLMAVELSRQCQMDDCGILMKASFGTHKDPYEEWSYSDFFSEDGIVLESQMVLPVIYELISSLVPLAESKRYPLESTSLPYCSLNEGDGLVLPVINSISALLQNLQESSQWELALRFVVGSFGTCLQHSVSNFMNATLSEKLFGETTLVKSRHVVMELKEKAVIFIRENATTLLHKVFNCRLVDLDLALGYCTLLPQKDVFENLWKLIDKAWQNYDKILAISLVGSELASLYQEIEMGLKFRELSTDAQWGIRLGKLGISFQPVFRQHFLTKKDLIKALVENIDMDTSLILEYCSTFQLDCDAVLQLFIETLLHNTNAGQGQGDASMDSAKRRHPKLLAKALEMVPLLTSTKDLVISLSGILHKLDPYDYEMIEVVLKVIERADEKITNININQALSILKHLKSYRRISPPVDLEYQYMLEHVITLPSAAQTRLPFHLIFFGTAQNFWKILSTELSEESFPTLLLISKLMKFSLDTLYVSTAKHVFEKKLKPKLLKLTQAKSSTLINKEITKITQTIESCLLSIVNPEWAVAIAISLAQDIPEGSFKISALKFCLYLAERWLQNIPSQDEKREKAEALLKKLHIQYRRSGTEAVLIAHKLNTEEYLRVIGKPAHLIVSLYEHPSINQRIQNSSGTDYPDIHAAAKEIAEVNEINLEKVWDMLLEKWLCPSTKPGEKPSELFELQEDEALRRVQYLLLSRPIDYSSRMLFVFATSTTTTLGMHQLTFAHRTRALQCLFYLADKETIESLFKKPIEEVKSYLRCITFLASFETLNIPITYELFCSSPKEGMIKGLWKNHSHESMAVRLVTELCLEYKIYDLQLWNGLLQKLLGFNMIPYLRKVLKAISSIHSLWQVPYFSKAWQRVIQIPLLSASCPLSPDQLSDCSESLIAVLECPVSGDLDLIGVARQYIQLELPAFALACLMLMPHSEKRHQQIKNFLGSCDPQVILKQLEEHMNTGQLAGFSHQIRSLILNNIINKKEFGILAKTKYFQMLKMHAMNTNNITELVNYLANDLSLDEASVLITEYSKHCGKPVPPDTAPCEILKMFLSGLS
UniProt Q53GT1: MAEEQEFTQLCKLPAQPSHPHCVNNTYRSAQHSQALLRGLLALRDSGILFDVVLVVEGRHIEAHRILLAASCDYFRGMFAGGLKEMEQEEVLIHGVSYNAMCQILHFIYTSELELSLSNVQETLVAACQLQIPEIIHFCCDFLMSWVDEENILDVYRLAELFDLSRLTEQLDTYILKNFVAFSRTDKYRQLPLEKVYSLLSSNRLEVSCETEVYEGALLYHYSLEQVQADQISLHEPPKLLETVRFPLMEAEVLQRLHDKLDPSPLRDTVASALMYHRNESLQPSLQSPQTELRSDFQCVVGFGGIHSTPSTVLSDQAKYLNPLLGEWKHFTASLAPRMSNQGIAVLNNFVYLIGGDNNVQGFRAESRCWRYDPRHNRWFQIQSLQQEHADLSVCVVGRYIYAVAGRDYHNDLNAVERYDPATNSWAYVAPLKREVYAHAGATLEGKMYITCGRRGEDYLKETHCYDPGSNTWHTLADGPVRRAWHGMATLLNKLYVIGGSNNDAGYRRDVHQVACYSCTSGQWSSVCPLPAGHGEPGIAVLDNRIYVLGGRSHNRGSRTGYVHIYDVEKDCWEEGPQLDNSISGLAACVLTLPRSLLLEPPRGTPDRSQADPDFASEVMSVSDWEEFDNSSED
UniProt Q9H9P8: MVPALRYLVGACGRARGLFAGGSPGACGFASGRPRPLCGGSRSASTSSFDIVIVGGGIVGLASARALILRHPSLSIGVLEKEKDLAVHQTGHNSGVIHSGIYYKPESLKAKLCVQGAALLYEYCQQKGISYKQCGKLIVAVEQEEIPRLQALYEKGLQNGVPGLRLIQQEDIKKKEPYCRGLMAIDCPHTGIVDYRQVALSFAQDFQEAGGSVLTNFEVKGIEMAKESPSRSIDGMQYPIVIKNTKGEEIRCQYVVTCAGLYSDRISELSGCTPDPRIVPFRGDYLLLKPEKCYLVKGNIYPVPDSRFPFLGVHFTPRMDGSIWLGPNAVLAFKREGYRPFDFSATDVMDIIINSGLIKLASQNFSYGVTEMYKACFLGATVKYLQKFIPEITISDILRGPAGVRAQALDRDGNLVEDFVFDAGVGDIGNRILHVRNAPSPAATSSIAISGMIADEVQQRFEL

compound: CC1Cc2ccccc2N1C(=O)C1CCCN(C1)C(=O)CCl (mixture of isomers) [TRIM25 ligand 11 (diastereomer mixture)]; assay: probe-labelled cysteine peptide fold change vs DMSO (competition) (log2 fold change); higher = less target engagement (more negative = stronger competition); conditions: 10 µM; THP-1; incubation time: 4 h
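Note: competitive chemoproteomic profiling in live THP-1 cells with an iodoacetamide desthiobiotin (IA-DTB) probe, comparing probe-labelled peptide intensities in compound-treated cells against DMSO-treated controls.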

Target | probe-labelled cysteine peptide fold change
LCMT2_O60294_396_DCDSEWK (UniProt O60294) | 0.0776
KYNU_Q16719_425_GVVCDK (UniProt Q16719) | -0.00461
LAP3_P28838_335_LNLPINIIGLAPLCENMPSGK (UniProt P28838) | -0.118
LAMTOR5_O43504_66_LTSDPTDIPVVCLESDNGNIMIQK (UniProt O43504) | 0.113
KIFC1_Q9BW19_485_KGQGGECEIR (UniProt Q9BW19) | 0.0549
LARP4_Q71RC2_65_VWQEIAPGNTDATPVTHGTESSWHEIAATSGAHPEGNAELSEDICK (UniProt Q71RC2) | 0.259
KLHDC4_Q8TBB5_120_CAHQAVVVPQGGGQLWVFGGEFASPNGEQFYHYK (UniProt Q8TBB5) | -0.0549
KIF4A_O95239_269_GLLCLGNVISALGDDK (UniProt O95239) | 0.0859
LARS_Q9P2J5_92_CCLFPFGLHCTGMPIK (UniProt Q9P2J5) | 0.0953
LAS1L_Q9Y4W2_169_KMPHINDCRR (UniProt Q9Y4W2) | -0.358
LDHA_P00338_293_DDVFLSVPCILGQNGISDLVK (UniProt P00338) | 0.165
KIF4A_O95239_443_QHAACK (UniProt O95239) | -0.0695
KLC3_Q6P597_314_EAEPLCQR (UniProt Q6P597) | 0.105
LANCL1_O43813_108_SITFLCGDAGPLAVAAVLYHK (UniProt O43813) | -0.101
KNTC1_P50748_911_IIDLIDREQGEDCLLLLK (UniProt P50748) | 0.282
KLHL22_Q53GT1_572+589_DCWEEGPQLDNSISGLAACVLTLPR (UniProt Q53GT1) | 0.0705
KPNB1_Q14974_223_HFIMQVVCEATQCPDTR (UniProt Q14974) | -0.453
KLHDC4_Q8TBB5_465_QVTLSDLHCLDLHR (UniProt Q8TBB5) | -0.0961
LACTB_P83111_154_EVWSEGLGYADVENRVPCKPETVMR (UniProt P83111) | 0.11
L2HGDH_Q9H9P8_376_ACFLGATVK (UniProt Q9H9P8) | 0.213
KRR1_Q13601_102_ALNEHHVNATLDLIEGSMTVCTTK (UniProt Q13601) | -0.0373
